Measurements taken from paper PMC5584925.
No constants are given. Whether binding was seen depends on the method and setting. Binding seen in cells or lysates may run through a third protein. Some results given as binding are weak or reduced against the parent protein; the word gives no strength. For some of these results: Tags and fused reporters may be left off the sequences shown.

Amino acid sequences for entries named in this document (tags omitted).
UniProt Q14974: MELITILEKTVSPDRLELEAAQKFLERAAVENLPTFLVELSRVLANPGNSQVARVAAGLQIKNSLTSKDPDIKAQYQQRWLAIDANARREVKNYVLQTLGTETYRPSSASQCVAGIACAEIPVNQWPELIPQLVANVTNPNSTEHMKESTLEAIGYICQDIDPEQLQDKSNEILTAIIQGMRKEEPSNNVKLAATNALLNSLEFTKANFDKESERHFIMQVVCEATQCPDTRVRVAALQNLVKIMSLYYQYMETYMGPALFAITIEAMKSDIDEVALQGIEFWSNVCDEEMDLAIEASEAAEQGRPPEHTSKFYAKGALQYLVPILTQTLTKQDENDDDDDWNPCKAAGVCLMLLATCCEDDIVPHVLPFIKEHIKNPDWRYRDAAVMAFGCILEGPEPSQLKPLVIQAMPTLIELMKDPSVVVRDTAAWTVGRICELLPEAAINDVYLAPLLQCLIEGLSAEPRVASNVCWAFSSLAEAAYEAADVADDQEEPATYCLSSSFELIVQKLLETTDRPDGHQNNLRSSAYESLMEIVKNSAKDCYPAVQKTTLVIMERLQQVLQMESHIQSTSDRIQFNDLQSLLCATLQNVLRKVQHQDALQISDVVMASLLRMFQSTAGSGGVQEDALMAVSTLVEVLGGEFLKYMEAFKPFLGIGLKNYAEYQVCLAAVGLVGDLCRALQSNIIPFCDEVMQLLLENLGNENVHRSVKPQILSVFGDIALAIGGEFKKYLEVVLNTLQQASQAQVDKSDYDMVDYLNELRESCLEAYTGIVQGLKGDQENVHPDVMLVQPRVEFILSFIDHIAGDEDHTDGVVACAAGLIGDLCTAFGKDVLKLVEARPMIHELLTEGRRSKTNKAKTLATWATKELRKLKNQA
UniProt P12520: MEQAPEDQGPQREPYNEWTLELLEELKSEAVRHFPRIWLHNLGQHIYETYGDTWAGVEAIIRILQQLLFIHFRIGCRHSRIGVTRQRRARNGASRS

Tests used:
[1] = molecular target: HA-tagged GST-POM121C (614–987) (human) (UniProt A8CG34); test: pull-down; lysates of HEK293 cells stably expressing HA-GST fusions (25 mM Tris-HCl pH 7.4, 150 mM NaCl, 1% NP40, 5% glycerol), Glutathione-Sepharose 4B for 2 h at 4°C, five washes, blots with anti-KPNB1 and anti-GST or anti-HA
[2] = molecular target: HA-tagged GST-POM121C (801–987) (human) (UniProt A8CG34); test: as above
POM121C (human) [3] = molecular target: POM121C (human) (UniProt A8CG34); test: co-IP; immunoprecipitation, POM121C with Vpr; no data shown, no conditions told
POM121C (human) [4] = molecular target: POM121C (human) (UniProt A8CG34); test: pull-down; GST pull-down, POM121C with Vpr; no data shown, no conditions told

Row | Substance | binding [1] | binding [2] | binding (POM121C (human) [3]) | binding (POM121C (human) [4])
1 | Importin subunit beta-1 (KPNB1) (from UniProt Q14974 1-876) | binds | binds | – | –
2 | Vpr (from UniProt P12520 1-96) | – | – | no binding | no binding
